Data on 2 substances can be found in article PMC3798271.

Chains of the proteins cited; added tags and fusions are not shown.
UniProt O74752: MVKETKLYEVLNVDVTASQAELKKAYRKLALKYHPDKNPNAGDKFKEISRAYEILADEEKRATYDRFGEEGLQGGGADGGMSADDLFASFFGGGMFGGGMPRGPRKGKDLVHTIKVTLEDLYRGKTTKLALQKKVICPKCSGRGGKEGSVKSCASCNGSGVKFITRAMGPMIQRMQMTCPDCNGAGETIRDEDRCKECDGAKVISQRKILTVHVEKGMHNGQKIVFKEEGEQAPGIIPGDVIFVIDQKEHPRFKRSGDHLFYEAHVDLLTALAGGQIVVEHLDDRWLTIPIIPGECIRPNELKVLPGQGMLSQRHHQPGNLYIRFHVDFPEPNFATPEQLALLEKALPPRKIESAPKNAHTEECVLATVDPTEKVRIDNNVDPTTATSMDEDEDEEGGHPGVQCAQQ
UniProt Q10265: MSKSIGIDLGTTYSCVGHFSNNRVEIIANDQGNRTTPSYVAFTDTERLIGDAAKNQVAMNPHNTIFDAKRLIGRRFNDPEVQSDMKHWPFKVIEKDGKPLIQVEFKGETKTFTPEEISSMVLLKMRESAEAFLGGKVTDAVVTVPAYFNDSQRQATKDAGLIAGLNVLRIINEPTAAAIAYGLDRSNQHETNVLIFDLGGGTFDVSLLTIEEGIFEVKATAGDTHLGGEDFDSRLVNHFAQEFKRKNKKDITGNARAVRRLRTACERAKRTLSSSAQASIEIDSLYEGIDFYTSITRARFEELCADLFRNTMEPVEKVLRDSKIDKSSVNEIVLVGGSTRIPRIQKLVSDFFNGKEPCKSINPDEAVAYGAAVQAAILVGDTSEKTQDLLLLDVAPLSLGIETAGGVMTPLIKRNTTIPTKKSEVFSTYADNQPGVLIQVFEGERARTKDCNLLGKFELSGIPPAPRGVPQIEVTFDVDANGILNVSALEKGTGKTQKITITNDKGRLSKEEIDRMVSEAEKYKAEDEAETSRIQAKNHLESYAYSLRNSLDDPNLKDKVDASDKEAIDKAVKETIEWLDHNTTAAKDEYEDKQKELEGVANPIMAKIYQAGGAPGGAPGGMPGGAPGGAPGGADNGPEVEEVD
UniProt O59855: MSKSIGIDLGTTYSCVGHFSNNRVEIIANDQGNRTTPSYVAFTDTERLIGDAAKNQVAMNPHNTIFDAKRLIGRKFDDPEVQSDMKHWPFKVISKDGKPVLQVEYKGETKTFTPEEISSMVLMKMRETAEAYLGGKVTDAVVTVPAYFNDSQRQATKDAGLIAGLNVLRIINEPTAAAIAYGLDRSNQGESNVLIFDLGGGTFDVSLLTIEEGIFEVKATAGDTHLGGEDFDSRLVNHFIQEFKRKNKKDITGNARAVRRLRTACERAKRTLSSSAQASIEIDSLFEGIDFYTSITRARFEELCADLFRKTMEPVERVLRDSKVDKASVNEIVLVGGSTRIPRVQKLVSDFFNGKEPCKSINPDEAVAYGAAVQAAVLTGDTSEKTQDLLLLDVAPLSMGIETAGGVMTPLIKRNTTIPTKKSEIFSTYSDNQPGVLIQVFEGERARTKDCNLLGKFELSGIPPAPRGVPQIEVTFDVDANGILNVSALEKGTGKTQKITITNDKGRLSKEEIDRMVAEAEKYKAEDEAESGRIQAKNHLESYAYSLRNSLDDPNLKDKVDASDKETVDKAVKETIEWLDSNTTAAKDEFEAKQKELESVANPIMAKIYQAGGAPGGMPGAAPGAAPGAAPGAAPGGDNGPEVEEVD

The experiment has as its target DnaJ chaperone Mas5 (Schizosaccharomyces pombe) (UniProt O74752). In words: co-IP; lysates of log-phase S. pombe cells in Buffer A (phosphate, 150 mM NaCl, 2 mM EDTA, 50 mM NaF, 0.1 mM Na3VO4, protease inhibitors); anti-myc antibodies and Protein A (methods) or Protein-G beads, 1 hour; 6 washes; blots with anti-myc and anti-GFP (Fig. 4D) or anti-HA (Fig. S4A).

No constants are given. Whether binding was seen depends on the method and setting. Binding seen in cells or lysates may run through a third protein. Some entries that bind do so weakly or less than the wild type.

Ssa1 (from UniProt Q10265 1-644): the binding result was “binds”.

As for Ssa2 (from UniProt O59855 1-647), the binding result is given as “binds”.
